SMILES strings stand for the structures. The match of structure and compound is tentative.

Chains of the proteins cited; added tags and fusions are not shown.
UniProt O75907, whole entry: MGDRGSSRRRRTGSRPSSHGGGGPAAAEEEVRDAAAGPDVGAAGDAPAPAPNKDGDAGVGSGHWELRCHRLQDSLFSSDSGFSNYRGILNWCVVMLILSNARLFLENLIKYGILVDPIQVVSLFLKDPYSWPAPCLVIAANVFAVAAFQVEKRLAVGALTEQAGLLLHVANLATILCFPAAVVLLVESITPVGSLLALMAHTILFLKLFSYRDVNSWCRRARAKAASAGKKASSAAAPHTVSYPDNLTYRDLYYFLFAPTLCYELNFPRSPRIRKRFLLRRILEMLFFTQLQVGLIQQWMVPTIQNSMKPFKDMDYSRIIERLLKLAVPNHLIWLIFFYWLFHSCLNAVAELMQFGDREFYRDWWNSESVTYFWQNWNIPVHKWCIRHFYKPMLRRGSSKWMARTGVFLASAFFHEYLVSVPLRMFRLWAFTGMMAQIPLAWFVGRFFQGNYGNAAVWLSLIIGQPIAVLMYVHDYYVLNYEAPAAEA

The test concerns the target human DGAT1 (Homo sapiens, UniProt O75907). Kind of test: DGAT1 CPM Assay. To be noted: human DGAT1, CPM fluorescence, 1 hour incubation at room temperature; tested form: TFA.

For `CC(C)(C)S(=O)(=O)NC(=O)[C@H]1CC[C@H](OC2CCN(c3ccc(-c4nc5cc(F)ccc5[nH]4)cn3)CC2)CC1`, the IC50 came out at 15 nM.

Broadly, the IC50 is the concentration that gives 50% inhibition. A lower IC50 goes with greater potency.

The record behind these values is US20140088124A1, “IMIDAZOLE DERIVATIVES” (priority 2011, published 2014).
